No constants are given. Whether binding was seen depends on the method and setting. Binding seen in cells or lysates may run through a third protein. A yes stands for co-enrichment or nearness to the bait. Other partners may have been found. For some assays here: A no says only that the protein was not detected with the bait. For some assays here: Where a sequence is shown, tags or fusion partners need not be part of it.

Protein sequences, listed by entry. Tags and fused reporters are not part of them.
UniProt Q99714: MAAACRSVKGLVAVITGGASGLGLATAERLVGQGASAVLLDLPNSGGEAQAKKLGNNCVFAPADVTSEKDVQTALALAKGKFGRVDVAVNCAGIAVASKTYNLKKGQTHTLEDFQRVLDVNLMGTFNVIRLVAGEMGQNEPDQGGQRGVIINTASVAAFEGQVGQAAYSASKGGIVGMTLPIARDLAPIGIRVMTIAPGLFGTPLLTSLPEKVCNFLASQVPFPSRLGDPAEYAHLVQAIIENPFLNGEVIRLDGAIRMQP
UniProt Q9BQE3: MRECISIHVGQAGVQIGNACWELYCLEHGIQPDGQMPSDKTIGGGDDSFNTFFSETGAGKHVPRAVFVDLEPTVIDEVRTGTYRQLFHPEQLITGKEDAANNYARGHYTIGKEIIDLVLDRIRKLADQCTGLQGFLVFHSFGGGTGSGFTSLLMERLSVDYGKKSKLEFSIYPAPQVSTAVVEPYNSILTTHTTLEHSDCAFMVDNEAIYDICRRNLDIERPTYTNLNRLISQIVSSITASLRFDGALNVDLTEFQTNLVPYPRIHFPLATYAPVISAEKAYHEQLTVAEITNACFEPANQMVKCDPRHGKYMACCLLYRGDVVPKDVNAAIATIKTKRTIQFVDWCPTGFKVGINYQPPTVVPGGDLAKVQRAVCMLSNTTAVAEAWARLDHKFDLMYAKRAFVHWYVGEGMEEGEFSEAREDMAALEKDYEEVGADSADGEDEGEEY

Drawing on publication PMC9866090, this text covers binding for four molecules.

The target of assay [1] is T1, NS1-wt-GFP (rat parvovirus H1 (H1-PV)) (UniProt P03133).
T1 sequence: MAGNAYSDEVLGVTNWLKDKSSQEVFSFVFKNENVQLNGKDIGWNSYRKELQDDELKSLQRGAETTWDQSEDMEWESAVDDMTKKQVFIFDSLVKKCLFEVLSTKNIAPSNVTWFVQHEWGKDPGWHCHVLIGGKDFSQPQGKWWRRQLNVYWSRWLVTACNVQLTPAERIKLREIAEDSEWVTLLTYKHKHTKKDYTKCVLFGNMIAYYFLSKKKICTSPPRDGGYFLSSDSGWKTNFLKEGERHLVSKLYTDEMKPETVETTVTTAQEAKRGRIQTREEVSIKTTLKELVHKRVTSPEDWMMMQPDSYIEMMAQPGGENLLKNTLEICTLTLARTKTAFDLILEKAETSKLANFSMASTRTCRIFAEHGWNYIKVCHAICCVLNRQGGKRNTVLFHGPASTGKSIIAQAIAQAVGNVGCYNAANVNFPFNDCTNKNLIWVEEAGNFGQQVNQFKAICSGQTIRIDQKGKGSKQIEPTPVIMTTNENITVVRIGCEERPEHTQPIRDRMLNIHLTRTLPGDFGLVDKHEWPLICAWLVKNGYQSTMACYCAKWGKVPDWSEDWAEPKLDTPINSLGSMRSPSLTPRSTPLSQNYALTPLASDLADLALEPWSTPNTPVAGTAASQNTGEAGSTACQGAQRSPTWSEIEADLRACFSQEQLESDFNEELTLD
As to the kind of experiment: affinity purification with mass spectrometry.

Assay [2] addresses T2, NS1-wt-BioID2-HA (rat parvovirus H1 (H1-PV)) (UniProt P03133).
T2 sequence: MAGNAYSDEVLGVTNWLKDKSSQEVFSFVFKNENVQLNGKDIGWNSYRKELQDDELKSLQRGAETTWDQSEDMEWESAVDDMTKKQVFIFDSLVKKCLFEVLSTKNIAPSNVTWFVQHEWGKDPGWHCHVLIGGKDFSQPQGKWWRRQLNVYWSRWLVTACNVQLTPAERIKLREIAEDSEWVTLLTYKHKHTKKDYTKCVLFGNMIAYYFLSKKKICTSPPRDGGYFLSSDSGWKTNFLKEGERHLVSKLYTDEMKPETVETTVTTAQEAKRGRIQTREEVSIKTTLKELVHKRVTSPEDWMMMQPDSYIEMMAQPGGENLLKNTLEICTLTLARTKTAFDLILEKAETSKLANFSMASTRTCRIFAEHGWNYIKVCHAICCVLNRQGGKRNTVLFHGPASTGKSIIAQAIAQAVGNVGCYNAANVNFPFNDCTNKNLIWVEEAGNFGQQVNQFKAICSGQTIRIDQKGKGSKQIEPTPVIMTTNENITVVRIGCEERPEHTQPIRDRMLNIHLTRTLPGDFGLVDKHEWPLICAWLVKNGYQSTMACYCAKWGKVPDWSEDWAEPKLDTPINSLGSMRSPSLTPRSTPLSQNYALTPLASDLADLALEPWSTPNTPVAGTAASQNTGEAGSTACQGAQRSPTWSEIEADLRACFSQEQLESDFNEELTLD
Description: proximity labelling.

Assay [3] addresses NS1-T585E-GFP (rat parvovirus H1 (H1-PV)) (UniProt P03133). As to the kind of experiment: affinity purification with mass spectrometry.
For assay [4], the target named is NS1-T585E-BioID2-HA (rat parvovirus H1 (H1-PV)) (UniProt P03133). Description: proximity labelling.

For HSD17B10 (from UniProt Q99714 1-261), the binding result in assay [1] and in assay [2] was “binds” throughout.
For TUBA1C (from UniProt Q9BQE3 1-449), the binding result is given as “binds” in assay [1], “no binding” in assay [3] and “binds” in assay [2].

B1: Apoptotic Chromatin Condensation Inducer 1 (protein, UniProt Q9UKV3 1-1341)
chain: MWRRKHPRTSGGTRGVLSGNRGVEYGSGRGHLGTFEGRWRKLPKMPEAVGTDPSTSRKMAELEEVTLDGKPLQALRVTDLKAALEQRGLAKSGQKSALVKRLKGALMLENLQKHSTPHAAFQPNSQIGEEMSQNSFIKQYLEKQQELLRQRLEREAREAAELEEASAESEDEMIHPEGVASLLPPDFQSSLERPELELSRHSPRKSSSISEEKGDSDDEKPRKGERRSSRVRQARAAKLSEGSQPAEEEEDQETPSRNLRVRADRNLKTEEEEEEEEEEEEDDEEEEGDDEGQKSREAPILKEFKEEGEEIPRVKPEEMMDERPKTRSQEQEVLERGGRFTRSQEEARKSHLARQQQEKEMKTTSPLEEEEREIKSSQGLKEKSKSPSPPRLTEDRKKASLVALPEQTASEEETPPPLLTKEASSPPPHPQLHSEEEIEPMEGPAPAVLIQLSPPNTDADTRELLVSQHTVQLVGGLSPLSSPSDTKAESPAEKVPEESVLPLVQKSTLADYSAQKDLEPESDRSAQPLPLKIEELALAKGITEECLKQPSLEQKEGRRASHTLLPSHRLKQSADSSSSRSSSSSSSSSRSRSRSPDSSGSRSHSPLRSKQRDVAQARTHANPRGRPKMGSRSTSESRSRSRSRSRSASSNSRKSLSPGVSRDSSTSYTETKDPSSGQEVATPPVPQLQVCEPKERTSTSSSSVQARRLSQPESAEKHVTQRLQPERGSPKKCEAEEAEPPAATQPQTSETQTSHLPESERIHHTVEEKEEVTMDTSENRPENDVPEPPMPIADQVSNDDRPEGSVEDEEKKESSLPKSFKRKISVVSATKGVPAGNSDTEGGQPGRKRRWGASTATTQKKPSISITTESLKSLIPDIKPLAGQEAVVDLHADDSRISEDETERNGDDGTHDKGLKICRTVTQVVPAEGQENGQREEEEEEKEPEAEPPVPPQVSVEVALPPPAEHEVKKVTLGDTLTRRSISQQKSGVSITIDDPVRTAQVPSPPRGKISNIVHISNLVRPFTLGQLKELLGRTGTLVEEAFWIDKIKSHCFVTYSTVEEAVATRTALHGVKWPQSNPKFLCADYAEQDELDYHRGLLVDRPSETKTEEQGIPRPLHPPPPPPVQPPQHPRAEQREQERAVREQWAEREREMERRERTRSEREWDRDKVREGPRSRSRSRDRRRKERAKSKEKKSEKKEKAQEEPPAKLLDDLFRKTKAAPCIYWLPLTDSQIVQKEAERAERAKEREKRRKEQEEEEQKEREKEAERERNRQLEREKRREHSRERDRERERERERDRGDRDRDRERDRERGRERDRRDTKRHSRSRSRSTPVRDRGGRR
On to B1, for which the binding result in assay [1] and in assay [3] was “binds” in each case.

B2: LIG3 (protein, UniProt P49916 43-1009)
chain: LLHGHPLFLRRKPVLSFQGSHLRSRATYLVFLPGLHVGLCSGPCEMAEQRFCVDYAKRGTAGCKKCKEKIVKGVCRIGKVVPNPFSESGGDMKEWYHIKCMFEKLERARATTKKIEDLTELEGWEELEDNEKEQITQHIADLSSKAAGTPKKKAVVQAKLTTTGQVTSPVKGASFVTSTNPRKFSGFSAKPNNSGEAPSSPTPKRSLSSSKCDPRHKDCLLREFRKLCAMVADNPSYNTKTQIIQDFLRKGSAGDGFHGDVYLTVKLLLPGVIKTVYNLNDKQIVKLFSRIFNCNPDDMARDLEQGDVSETIRVFFEQSKSFPPAAKSLLTIQEVDEFLLRLSKLTKEDEQQQALQDIASRCTANDLKCIIRLIKHDLKMNSGAKHVLDALDPNAYEAFKASRNLQDVVERVLHNAQEVEKEPGQRRALSVQASLMTPVQPMLAEACKSVEYAMKKCPNGMFSEIKYDGERVQVHKNGDHFSYFSRSLKPVLPHKVAHFKDYIPQAFPGGHSMILDSEVLLIDNKTGKPLPFGTLGVHKKAAFQDANVCLFVFDCIYFNDVSLMDRPLCERRKFLHDNMVEIPNRIMFSEMKRVTKALDLADMITRVIQEGLEGLVLKDVKGTYEPGKRHWLKVKKDYLNEGAMADTADLVVLGAFYGQGSKGGMMSIFLMGCYDPGSQKWCTVTKCAGGHDDATLARLQNELDMVKISKDPSKIPSWLKVNKIYYPDFIVPDPKKAAVWEITGAEFSKSEAHTADGISIRFPRCTRIRDDKDWKSATNLPQLKELYQLSKEKADFTVVAGDEGSSTTGGSSEENKGPSGSAVSRKAPSKPSASTKKAEGKLSNSNSKDGNMQTAKPSAMKVGEKLATKSSPVKVGEKRKAADETLCQTKVLLDIFTGVRLYLPPSTPDFSRLRRYFVAFDGDLVQEFDMTSATHVLGSRDKNPAAQQVSPEWIWACIRKRRLVAPC
On to B2, for which the binding entry in assay [1], in assay [3], in assay [4] and in assay [2] was “binds” throughout.
